Laboratory results taken from the supplement of paper PMC10727501.
Some of the results follow. This data set is noisy: repeats of one test often differ as much as different tests do.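 Free-swimming zebrafish larvae were scored for O-bend response probability to dark flashes (naive: first five; training: remaining flashes of four 60-flash blocks; test: later 60-flash block) and for turning toward alternating leftward/rightward LED motion (OMR). Six treated larvae were compared with sixty 0.1% DMSO controls; |SSMD|≥2 defined a hit.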

Key:
Settings in all cases: 10 µM; pre-incubation: 30-90 min
[1] = tested on: Danio rerio larvae (5 dpf, TLF); assay: OMR-Perf (SSMD vs DMSO vehicle); higher = higher than vehicle (e.g. higher dark-flash O-bend response probability, or better optomotor performance)
[2] = tested on: Danio rerio larvae (5 dpf, TLF); assay: Prob-Test (SSMD vs DMSO vehicle); higher = higher than vehicle (e.g. higher dark-flash O-bend response probability, or better optomotor performance)
[3] = tested on: Danio rerio larvae (5 dpf, TLF); assay: Prob-Naive (SSMD vs DMSO vehicle); higher = higher than vehicle (e.g. higher dark-flash O-bend response probability, or better optomotor performance)
[4] = tested on: Danio rerio larvae (5 dpf, TLF); assay: Prob-Train (SSMD vs DMSO vehicle); higher = higher than vehicle (e.g. higher dark-flash O-bend response probability, or better optomotor performance)

Structure (SMILES)	OMR-Perf [1]	Prob-Test [2]	Prob-Naive [3]	Prob-Train [4]
S=C=Nc1cccc(NC(=S)NCCCCNC(=S)Nc2cccc(N=C=S)c2)c1	-0.545	0.288	0.6	0.378
CC(=O)SCC(Cc1ccccc1)C(=O)NCC(=O)OCc1ccccc1 (stereo not drawn) [Racecadotril]	-0.257	0.627	-0.643	-0.444
C=C1/C(=C\C=C2\CCC[C@]3(C)[C@@H]([C@H](C)CCCC(C)C)CC[C@@H]23)C[C@@H](O)C[C@@H]1O [Alfacalcidol]	-0.942	-0.791	-0.321	-0.403
C[C@@H]1C/C=C/C=C/C=C/C=C/[C@H](O[C@@H]2O[C@H](C)[C@@H](O)[C@H](N)[C@H]2O)C[C@@H]2O[C@](O)(C[C@@H](O)C[C@H]3O[C@@H]3/C=C/C(=O)O1)C[C@H](O)[C@H]2C(=O)O [Natamycin]	-0.139	0.769	0.255	0.469
CC(C)c1cc(-c2ccc(F)c3ccccc23)nc(N)n1	-0.445	-0.998	-1.75	-2.07
CCCNC(=O)NS(=O)(=O)c1ccc(Cl)cc1 [Chlorpropamide]	-0.328	0.671	0.4	0.378
CCOc1ccc(Cc2cc([C@@H]3O[C@H](CO)[C@@H](O)[C@H](O)[C@@H]3O)ccc2Cl)cc1 [Dapagliflozin]	0.0842	0.415	0.357	0.32
Cc1ccc(Nc2nccc(N(C)c3ccc4c(C)n(C)nc4c3)n2)cc1S(N)(=O)=O [Pazopanib]	-0.231	-0.0719	0.0457	-0.148
CCCCN(CCCC)CCCOC(=O)c1ccc(N)cc1 [Butacaine]	-0.726	0.174	-0.154	0.31
CN(C)CCC(c1ccc(Cl)cc1)c1ccccn1.O=C(O)/C=C\C(=O)O (stereo not drawn) [Chlorpheniramine Maleate]	0.157	1.01	-0.027	0.146
CC(=O)O[C@]1(C(C)=O)CC[C@H]2[C@@H]3C[C@H](C)C4=CC(=O)C=C[C@]4(C)[C@@]3(F)[C@@H](O)C[C@@]21C [Fluorometholone Acetate]	1.01	-0.359	0.312	0.0348
COc1cc2c(NC3CCN(CC4CCCCC4)CC3)nc(N3CCCN(C(C)C)CC3)nc2cc1OCCCN1CCCCC1	0.0645	0.554	-0.0813	0.319
CC(S)C(=O)NCC(=O)O (stereo not drawn) [Tiopronin]	1.3	0.634	0.285	0.174
CN(C)C(=O)Nc1cccc(-c2ccc(N(C)C)cc2)c1 [Atglistatin]	-0.461	-0.466	-0.387	-0.79
O=C(NCc1cccc(O)c1)Nc1nc(-c2ccncc2)cs1	0.133	-0.559	-0.202	-0.292
O/C(=NCc1ccccc1)/CCNNC(=O)c1ccncc1 [Nialamide]	0.446	0.64	0.153	0.959
O=c1[nH]cnc2c1ncn2[C@H]1CC[C@@H](CO)O1 [Didanosine]	-0.355	0.133	-0.0542	-0.0881
CN1CCN(C(=O)c2cc3cc(Cl)ccc3[nH]2)CC1	-0.44	0.107	0.651	-0.0958
Cn1cnc2c(F)c(Nc3ccc(Br)cc3F)c(C(=O)NOCCO)cc21	-0.22	-0.198	0.0457	-0.154
Cl.Cl.Clc1ccc(Nc2nnc(Cc3ccncc3)c3ccccc23)cc1 [Vatalanib (PTK787) 2HCl]	-0.387	-1.17	-0.157	-1.53
COc1cc2c(Oc3ccc4[nH]c(C)cc4c3F)ncnc2cc1OCCCN1CCCC1 [Cediranib (AZD2171)]	-0.121	0.198	0.35	0.134
CC(C)(C)C#Cc1cc(N(C(=O)[C@H]2CC[C@H](C)CC2)[C@H]2CC[C@@H](O)CC2)c(C(=O)O)s1 [VX-222 (VCH-222, Lomibuvir)]	0.361	0.358	-0.157	0.616
CCCc1ncc(C[n+]2ccccc2C)c(N)n1.Cl.[Cl-] [Amprolium HCl]	0.3	0.134	0.585	0.519
OC[C@@H](O)[C@@H](O)CO [Erythritol]	-0.103	-0.394	-0.252	-0.139
O=C[C@H](O)[C@@H](O)[C@H](O)[C@H](O)CO [Dextrose]	-0.326	0.181	-0.337	-0.455
CNC[C@H](O)c1ccc(O)c(O)c1.O=C(O)[C@H](O)[C@@H](O)C(=O)O [Epinephrine Bitartrate]	-0.399	0.289	-0.0304	-0.0218
CCC(C)(Oc1ccc(C2(c3ccc(OC(C)(CC)C(=O)O)cc3)CCCCC2)cc1)C(=O)O (stereo not drawn) [Clinofibrate]	-0.204	0.332	-0.0932	-0.147

Quoted from above for reference:
Structure (SMILES)	OMR-Perf [1]	Prob-Test [2]	Prob-Naive [3]	Prob-Train [4]
CNC[C@H](O)c1ccc(O)c(O)c1.O=C(O)[C@H](O)[C@@H](O)C(=O)O [Epinephrine Bitartrate]	-0.399	0.289	-0.0304	-0.0218
CCC(C)(Oc1ccc(C2(c3ccc(OC(C)(CC)C(=O)O)cc3)CCCCC2)cc1)C(=O)O (stereo not drawn) [Clinofibrate]	-0.204	0.332	-0.0932	-0.147
